Consider three molecules from paper doi:10.1101/2020.11.13.381483.

Changes are numbered by the printed parent chain. Names and notes keep the numbering of the source. These are yes or no findings as the source states them, for the method shown. For part of these data: Binding seen in cells or lysates may run through a third protein. Some results given as binding are weak or reduced against the parent protein; the word gives no strength. Sequences can lack the tags named with a protein.

The target in assay [1] is T1, Pds5, endogenous, C-terminally tagged with 13Myc (S. cerevisiae) (UniProt Q04264).
T1 sequence: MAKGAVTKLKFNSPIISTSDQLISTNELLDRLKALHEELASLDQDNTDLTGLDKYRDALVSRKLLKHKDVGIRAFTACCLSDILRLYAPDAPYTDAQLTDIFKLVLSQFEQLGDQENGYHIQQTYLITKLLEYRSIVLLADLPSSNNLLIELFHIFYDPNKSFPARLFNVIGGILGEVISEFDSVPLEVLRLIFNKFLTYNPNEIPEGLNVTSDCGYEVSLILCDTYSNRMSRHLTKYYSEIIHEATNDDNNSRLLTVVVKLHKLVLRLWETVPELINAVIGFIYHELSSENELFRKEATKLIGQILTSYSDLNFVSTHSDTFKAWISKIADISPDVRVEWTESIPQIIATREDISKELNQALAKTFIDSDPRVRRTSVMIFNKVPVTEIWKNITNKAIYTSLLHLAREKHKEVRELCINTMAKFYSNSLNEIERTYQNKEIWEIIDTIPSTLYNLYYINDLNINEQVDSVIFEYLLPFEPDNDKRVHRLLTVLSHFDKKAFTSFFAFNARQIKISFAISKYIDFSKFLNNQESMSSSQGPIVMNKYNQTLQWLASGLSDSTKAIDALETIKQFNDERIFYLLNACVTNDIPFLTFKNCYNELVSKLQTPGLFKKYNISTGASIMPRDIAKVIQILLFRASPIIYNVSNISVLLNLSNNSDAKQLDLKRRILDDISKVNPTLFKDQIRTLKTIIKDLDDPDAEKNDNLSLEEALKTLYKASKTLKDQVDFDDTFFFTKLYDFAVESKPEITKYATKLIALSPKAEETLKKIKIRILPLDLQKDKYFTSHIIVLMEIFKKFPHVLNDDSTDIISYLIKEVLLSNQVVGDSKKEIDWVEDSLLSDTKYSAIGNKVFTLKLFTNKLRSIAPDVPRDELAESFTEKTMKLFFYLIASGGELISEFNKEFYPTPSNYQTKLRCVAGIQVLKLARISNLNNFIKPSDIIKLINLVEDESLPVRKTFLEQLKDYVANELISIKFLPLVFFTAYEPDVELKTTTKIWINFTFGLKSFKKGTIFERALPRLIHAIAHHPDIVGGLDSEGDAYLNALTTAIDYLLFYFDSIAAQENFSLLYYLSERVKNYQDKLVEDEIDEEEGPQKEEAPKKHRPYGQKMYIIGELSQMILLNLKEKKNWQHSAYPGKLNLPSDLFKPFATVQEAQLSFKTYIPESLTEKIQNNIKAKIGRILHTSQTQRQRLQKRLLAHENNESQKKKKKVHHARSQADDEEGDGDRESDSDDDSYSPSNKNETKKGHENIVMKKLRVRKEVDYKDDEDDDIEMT
In words: co-IP.

The target in assay [2] is T2, Pds5 C-terminal fragment (aa 702-1277), Gal4 DNA-binding domain fusion (S. cerevisiae) (UniProt Q04264).
T2 sequence: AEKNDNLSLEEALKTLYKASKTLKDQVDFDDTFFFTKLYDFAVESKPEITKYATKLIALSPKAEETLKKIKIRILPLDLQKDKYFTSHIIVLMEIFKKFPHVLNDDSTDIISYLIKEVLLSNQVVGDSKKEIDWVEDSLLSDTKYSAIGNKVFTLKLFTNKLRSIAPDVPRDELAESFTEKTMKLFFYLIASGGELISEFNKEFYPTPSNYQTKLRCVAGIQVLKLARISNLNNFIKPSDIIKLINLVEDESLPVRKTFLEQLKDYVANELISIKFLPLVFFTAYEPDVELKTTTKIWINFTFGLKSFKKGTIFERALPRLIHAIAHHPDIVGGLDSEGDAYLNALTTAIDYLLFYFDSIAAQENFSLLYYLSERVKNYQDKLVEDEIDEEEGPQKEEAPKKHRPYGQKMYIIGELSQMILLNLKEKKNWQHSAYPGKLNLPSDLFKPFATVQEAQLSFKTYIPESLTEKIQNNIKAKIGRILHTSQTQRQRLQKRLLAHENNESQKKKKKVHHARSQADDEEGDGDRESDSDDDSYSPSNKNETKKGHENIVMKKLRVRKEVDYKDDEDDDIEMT
In words: two-hybrid.

For assay [3], the target named is T3, Ulp2, endogenous, C-terminally tagged with 9PK (S. cerevisiae) (UniProt P40537).
T3 sequence: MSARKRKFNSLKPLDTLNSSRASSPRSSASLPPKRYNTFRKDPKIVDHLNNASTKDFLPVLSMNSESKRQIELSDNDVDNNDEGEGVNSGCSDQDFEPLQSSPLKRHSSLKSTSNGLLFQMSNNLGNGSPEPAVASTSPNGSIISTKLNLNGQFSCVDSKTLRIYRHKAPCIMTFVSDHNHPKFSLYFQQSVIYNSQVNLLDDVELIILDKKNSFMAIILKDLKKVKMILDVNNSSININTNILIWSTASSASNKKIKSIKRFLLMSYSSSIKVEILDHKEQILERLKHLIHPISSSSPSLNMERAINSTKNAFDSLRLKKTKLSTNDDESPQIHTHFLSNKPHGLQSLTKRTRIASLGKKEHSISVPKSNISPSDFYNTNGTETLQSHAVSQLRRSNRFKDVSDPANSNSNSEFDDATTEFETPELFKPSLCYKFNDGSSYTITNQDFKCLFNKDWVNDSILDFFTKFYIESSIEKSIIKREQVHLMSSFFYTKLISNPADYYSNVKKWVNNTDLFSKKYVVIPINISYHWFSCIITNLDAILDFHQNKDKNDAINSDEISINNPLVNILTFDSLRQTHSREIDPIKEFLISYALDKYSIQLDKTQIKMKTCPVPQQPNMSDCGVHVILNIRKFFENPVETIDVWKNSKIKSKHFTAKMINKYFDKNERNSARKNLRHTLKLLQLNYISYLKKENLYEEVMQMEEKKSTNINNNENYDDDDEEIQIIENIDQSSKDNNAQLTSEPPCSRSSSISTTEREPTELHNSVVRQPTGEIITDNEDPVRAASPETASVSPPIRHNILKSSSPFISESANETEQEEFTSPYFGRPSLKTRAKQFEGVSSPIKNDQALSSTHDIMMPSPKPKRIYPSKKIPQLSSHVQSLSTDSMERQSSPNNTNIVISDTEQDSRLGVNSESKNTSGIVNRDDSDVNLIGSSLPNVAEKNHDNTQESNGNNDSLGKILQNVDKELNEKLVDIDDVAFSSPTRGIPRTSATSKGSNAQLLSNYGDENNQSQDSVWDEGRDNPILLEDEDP
In words: co-IP.

B1: Ulp2, endogenous, C-terminally tagged with 9PK (enzyme, UniProt P40537 1-1034)
chain: T3 sequence
As to B1, in assay [1], the binding entry is recorded as “binds”.

B2: catalytically dead Ulp2 (Ulp2-C624S), Gal4 activation domain fusion (enzyme, UniProt P40537 1-1034)
chain: T3 sequence with C624S
For B2, the binding result in assay [2] is reported as “binds weakly”.

B3: Pds5, endogenous, C-terminally tagged with 13Myc (protein, UniProt Q04264 1-1277)
chain: T1 sequence
B3: the binding result in assay [3] is reported as “binds”.
